We go through one molecule from patent US20260294870A1, “INDOLE LACTATE FOR THE TREATMENT OF MULTIPLE SCLEROSIS” (The Johns Hopkins University, priority 2023, published 2026).

Each structure is given as a SMILES string.

The data set in a line: Circulating levels of indole lactate in people with MS and healthy controls (HPLC and tandem mass spectrometry). On the set-up: species or system human.

For the molecule `O=C(O)C(O)Cc1c[nH]c2ccccc12` (centres unmarked) [indole lactate, indole-3-lactic acid], the “mean difference in levels of indole lactate in the blood, people with MS compared to controls” value (95% CI: −7.19 to −4.33, p=2.61E−15) is −5.76. The “levels of indole lactate in the blood of people with MS compared to controls” value (people with MS vs healthy controls) was “significant reduction”.
